For four molecules, binding results are on record in article PMC7028737.

Protein sequences, listed by entry. Tags and fused reporters are not part of them. Lines headed by an entry give the natural chain unless they say otherwise; changes in a name come on top. Chains listed by the source or under a name are the forms on record and can include a tag or linker.
FIR-FLAG (far-upstream element-binding protein (FUBP) 1-interacting repressor) (Q9UHX1, form named): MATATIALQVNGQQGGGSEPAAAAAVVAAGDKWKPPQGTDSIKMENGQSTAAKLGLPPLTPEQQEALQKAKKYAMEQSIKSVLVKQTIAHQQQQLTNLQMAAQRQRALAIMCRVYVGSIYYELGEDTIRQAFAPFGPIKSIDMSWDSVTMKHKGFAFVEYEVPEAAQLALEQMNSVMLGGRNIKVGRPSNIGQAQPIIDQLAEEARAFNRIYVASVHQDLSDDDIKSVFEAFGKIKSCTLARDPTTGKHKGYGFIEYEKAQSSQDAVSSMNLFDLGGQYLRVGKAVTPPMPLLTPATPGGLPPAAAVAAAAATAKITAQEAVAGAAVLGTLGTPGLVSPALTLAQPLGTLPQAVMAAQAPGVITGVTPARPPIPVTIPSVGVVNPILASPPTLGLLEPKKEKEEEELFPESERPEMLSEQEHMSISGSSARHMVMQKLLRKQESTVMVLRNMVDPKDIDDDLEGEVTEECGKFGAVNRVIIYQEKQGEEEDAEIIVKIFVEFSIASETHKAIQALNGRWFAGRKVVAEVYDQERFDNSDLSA

Test [1] deals with FIR-FLAG (far-upstream element-binding protein (FUBP) 1-interacting repressor) (human) (UniProt Q9UHX1). Description: affinity purification with mass spectrometry; Flag-conjugated beads pull down of FIR-FLAG or FIRΔexon2-FLAG from HeLa cells, GeLC-MS / LC-MS; data first obtained with the cell systems of ref. 9 and re-evaluated here.
The target of another test is FIRΔexon2-FLAG (human). The description is as above.

Results are given in words; binding and its absence hold for the method and conditions named. In cells and extracts the contact can be indirect. Here binding means that the protein was enriched with, or labelled near, the bait; the list need not be complete.

B1: Uncharacterized protein C19orf21 (protein, UniProt Q8IVT2 1-679)
chain: MDRVTRYPILGIPQAHRGTGLVLDGDTSYTYHLVCMGPEASGWGQDEPQTWPTDHRAQQGVQRQGVSYSVHAYTGQPSPRGLHSENREDEGWQVYRLGARDAHQGRPTWALRPEDGEDKEMKTYRLDAGDADPRRLCDLERERWAVIQGQAVRKSSTVATLQGTPDHGDPRTPGPPRSTPLEENVVDREQIDFLAARQQFLSLEQANKGAPHSSPARGTPAGTTPGASQAPKAFNKPHLANGHVVPIKPQVKGVVREENKVRAVPTWASVQVVDDPGSLASVESPGTPKETPIEREIRLAQEREADLREQRGLRQATDHQELVEIPTRPLLTKLSLITAPRRERGRPSLYVQRDIVQETQREEDHRREGLHVGRASTPDWVSEGPQPGLRRALSSDSILSPAPDARAADPAPEVRKVNRIPPDAYQPYLSPGTPQLEFSAFGAFGKPSSLSTAEAKAATSPKATMSPRHLSESSGKPLSTKQEASKPPRGCPQANRGVVRWEYFRLRPLRFRAPDEPQQAQVPHVWGWEVAGAPALRLQKSQSSDLLERERESVLRREQEVAEERRNALFPEVFSPTPDENSDQNSRSSSQASGITGSYSVSESPFFSPIHLHSNVAWTVEDPVDSAPPGQRKKEQWYAGINPSDGINSEVLEAIRVTRHKNAMAERWESRIYASEEDD
Regarding B1, the binding entry (in test [1]; with FIRΔexon2-FLAG (human)) was “binds” each time.

B2: Thyroid hormone receptor-associated protein 3 (protein, UniProt Q9Y2W1 1-955)
chain: MSKTNKSKSGSRSSRSRSASRSRSRSFSKSRSRSRSLSRSRKRRLSSRSRSRSYSPAHNRERNHPRVYQNRDFRGHNRGYRRPYYFRGRNRGFYPWGQYNRGGYGNYRSNWQNYRQAYSPRRGRSRSRSPKRRSPSPRSRSHSRNSDKSSSDRSRRSSSSRSSSNHSRVESSKRKSAKEKKSSSKDSRPSQAAGDNQGDEAKEQTFSGGTSQDTKASESSKPWPDATYGTGSASRASAVSELSPRERSPALKSPLQSVVVRRRSPRPSPVPKPSPPLSSTSQMGSTLPSGAGYQSGTHQGQFDHGSGSLSPSKKSPVGKSPPSTGSTYGSSQKEESAASGGAAYTKRYLEEQKTENGKDKEQKQTNTDKEKIKEKGSFSDTGLGDGKMKSDSFAPKTDSEKPFRGSQSPKRYKLRDDFEKKMADFHKEEMDDQDKDKAKGRKESEFDDEPKFMSKVIGANKNQEEEKSGKWEGLVYAPPGKEKQRKTEELEEESFPERSKKEDRGKRSEGGHRGFVPEKNFRVTAYKAVQEKSSSPPPRKTSESRDKLGAKGDFPTGKSSFSITREAQVNVRMDSFDEDLARPSGLLAQERKLCRDLVHSNKKEQEFRSIFQHIQSAQSQRSPSELFAQHIVTIVHHVKEHHFGSSGMTLHERFTKYLKRGTEQEAAKNKKSPEIHRRIDISPSTFRKHGLAHDEMKSPREPGYKAEGKYKDDPVDLRLDIERRKKHKERDLKRGKSRESVDSRDSSHSRERSAEKTEKTHKGSKKQKKHRRARDRSRSSSSSSQSSHSYKAEEYTEETEEREESTTGFDKSRLGTKDFVGPSERGGGRARGTFQFRARGRGWGRGNYSGNNNNNSNNDFQKRNREEEWDPEYTPKSKKYYLHDDREGEGSDKWVSRGRGRGAFPRGRGRFMFRKSSTSPKWAHDKFSGEEGEIEDDESGTENREEKDNIQPTTE
B2: the binding entry (in test [1]; in the test with FIRΔexon2-FLAG (human)) was “binds” each time.

B3: Forty-two-three domain-containing protein 1 (protein, UniProt Q96QD9 1-318)
chain: MNRFGTRLVGATATSSPPPKARSNENLDKIDMSLDDIIKLNRKEGKKQNFPRLNRRLLQQSGAQQFRMRVRWGIQQNSGFGKTSLNRRGRVMPGKRRPNGVITGLAARKTTGIRKGISPMNRPPLSDKNIEQYFPVLKRKANLLRQNEGQRKPVAVLKRPSQLSRKNNIPANFTRSGNKLNHQKDTRQATFLFRRGLKVQAQLNTEQLLDDVVAKRTRQWRTSTTNGGILTVSIDNPGAVQCPVTQKPRLTRTAVPSFLTKREQSDVKKVPKGVPLQFDINSVGKQTGMTLNERFGILKEQRATLTYNKGGSRFVTVG
For the molecule B3, the binding entry (in test [1]; with FIRΔexon2-FLAG (human)) was “binds” in each case.

B4: WD-repeat-containing protein 43 (protein, UniProt Q15061 1-677)
chain: MAAGGGGSCDPLAPAGVPCAFSPHSQAYFALASTDGHLRVWETANNRLHQEYVPSAHLSGTCTCLAWAPARLQAKESPQRKKRKSEAVGMSNQTDLLALGTAVGSILLYSTVKGELHSKLISGGHDNRVNCIQWHQDSGCLYSCSDDKHIVEWNVQTCKVKCKWKGDNSSVSSLCISPDGKMLLSAGRTIKLWVLETKEVYRHFTGHATPVSSLMFTTIRPPNESQPFDGITGLYFLSGAVHDRLLNVWQVRSENKEKSAVMSFTVTDEPVYIDLTLSENKEEPVKLAVVCRDGQVHLFEHILNGYCKKPLTSNCTIQIATPGKGKKSTPKPIPILAAGFCSDKMSLLLVYGSWFQPTIERVALNSREPHMCLVRDISNCWAPKVETAITKVRTPVMNSEAKVLVPGIPGHHAAIKPAPPQTEQVESKRKSGGNEVSIEERLGAMDIDTHKKGKEDLQTNSFPVLLTQGLESNDFEMLNKVLQTRNVNLIKKTVLRMPLHTIIPLLQELTKRLQGHPNSAVLMVQWLKCVLTVHASYLSTLPDLVPQLGTLYQLMESRVKTFQKLSHLHGKLILLITQVTASEKTKGATSPGQKAKLVYEEESSEEESDDEIADKDSEDNWDEDEEESESEKDEDVEEEDEDAEGKDEENGEDRDTASEKELNGDSDLDPENESEEE
For B4, the binding entry (in test [1]; in the test with FIRΔexon2-FLAG (human)) was “binds” each time.
